Reference: ChEMBL document CHEMBL4316593 (Eur J Med Chem, 2019)
The source gives many values for each of these; only a part stands here.

Columns and labels:
Type in all cases: cell-based
Conditions in all cases: U-87MG ATCC
[1] = Inhibition of RTK/PI3K/AKT/mTOR signaling in human U87 cells assessed as up regulation of MYT1 gene expression at cytotoxic IC50 measured after 48 hrs relative to control
[2] = Inhibition of RTK/PI3K/AKT/mTOR signaling in human U87 cells assessed as down regulation of EIF2B1 gene expression at cytotoxic IC50 measured after 48 hrs relative to control
[3] = Inhibition of RTK/PI3K/AKT/mTOR signaling in human U87 cells assessed as up regulation of 5'-nucleotidase domain containing 2 gene expression at cytotoxic IC50 measured after 48 hrs relative to control
[4] = Inhibition of RTK/PI3K/AKT/mTOR signaling in human U87 cells assessed as up regulation of mitochondrial ribosome recycling factor gene expression at cytotoxic IC50 measured after 48 hrs relative to control
[5] = Inhibition of RTK/PI3K/AKT/mTOR signaling in human U87 cells assessed as up regulation of solute carrier family 25 member 6 gene expression at cytotoxic IC50 measured after 48 hrs relative to control
[6] = Inhibition of RTK/PI3K/AKT/mTOR signaling in human U87 cells assessed as up regulation of cytochrome b561 gene expression at cytotoxic IC50 measured after 48 hrs relative to control
[7] = Inhibition of RTK/PI3K/AKT/mTOR signaling in human U87 cells assessed as up regulation of PPL gene expression at cytotoxic IC50 measured after 48 hrs relative to control
[8] = Inhibition of RTK/PI3K/AKT/mTOR signaling in human U87 cells assessed as down regulation of CHAF1A gene expression at cytotoxic IC50 measured after 48 hrs relative to control
[9] = Inhibition of RTK/PI3K/AKT/mTOR signaling in human U87 cells assessed as down regulation of ZFR gene expression at cytotoxic IC50 measured after 48 hrs relative to control
[10] = Inhibition of RTK/PI3K/AKT/mTOR signaling in human U87 cells assessed as down regulation of RELB gene expression at cytotoxic IC50 measured after 48 hrs relative to control
[11] = Inhibition of RTK/PI3K/AKT/mTOR signaling in human U87 cells assessed as up regulation of ankyrin repeat and sterile alpha motif domain containing 6 gene expression at cytotoxic IC50 measured after 48 hrs relative to control
[12] = Inhibition of RTK/PI3K/AKT/mTOR signaling in human U87 cells assessed as up regulation of NFIX gene expression at cytotoxic IC50 measured after 48 hrs relative to control
[13] = Inhibition of RTK/PI3K/AKT/mTOR signaling in human U87 cells assessed as up regulation of FK506 binding protein 2 gene expression at cytotoxic IC50 measured after 48 hrs relative to control
[14] = Inhibition of RTK/PI3K/AKT/mTOR signaling in human U87 cells assessed as up regulation of laminin subunit beta 3 gene expression at cytotoxic IC50 measured after 48 hrs relative to control
[15] = Inhibition of RTK/PI3K/AKT/mTOR signaling in human U87 cells assessed as down regulation of SP100 gene expression at cytotoxic IC50 measured after 48 hrs relative to control
[16] = Inhibition of RTK/PI3K/AKT/mTOR signaling in human U87 cells assessed as down regulation of PSMC2 gene expression at cytotoxic IC50 measured after 48 hrs relative to control
[17] = Inhibition of RTK/PI3K/AKT/mTOR signaling in human U87 cells assessed as down regulation of UBA1 gene expression at cytotoxic IC50 measured after 48 hrs relative to control
[18] = Inhibition of RTK/PI3K/AKT/mTOR signaling in human U87 cells assessed as down regulation of KHNYN gene expression at cytotoxic IC50 measured after 48 hrs relative to control
[19] = Inhibition of RTK/PI3K/AKT/mTOR signaling in human U87 cells assessed as up regulation of gap junction protein gamma 1 gene expression at cytotoxic IC50 measured after 48 hrs relative to control
[20] = Inhibition of RTK/PI3K/AKT/mTOR signaling in human U87 cells assessed as down regulation of DPM1 gene expression at cytotoxic IC50 measured after 48 hrs relative to control
[21] = Inhibition of RTK/PI3K/AKT/mTOR signaling in human U87 cells assessed as up regulation of ELFN2 gene expression at cytotoxic IC50 measured after 48 hrs relative to control
[22] = Inhibition of RTK/PI3K/AKT/mTOR signaling in human U87 cells assessed as down regulation of NATD1 gene expression at cytotoxic IC50 measured after 48 hrs relative to control
[23] = Inhibition of RTK/PI3K/AKT/mTOR signaling in human U87 cells assessed as down regulation of SPAG5 gene expression at cytotoxic IC50 measured after 48 hrs relative to control
[24] = Inhibition of RTK/PI3K/AKT/mTOR signaling in human U87 cells assessed as up regulation of musashi RNA binding protein 2 gene expression at cytotoxic IC50 measured after 48 hrs relative to control
[25] = Inhibition of RTK/PI3K/AKT/mTOR signaling in human U87 cells assessed as down regulation of CRISPLD2 gene expression at cytotoxic IC50 measured after 48 hrs relative to control
[26] = Inhibition of RTK/PI3K/AKT/mTOR signaling in human U87 cells assessed as up regulation of eukaryotic elongation factor 2 kinase gene expression at cytotoxic IC50 measured after 48 hrs relative to control
[27] = Inhibition of RTK/PI3K/AKT/mTOR signaling in human U87 cells assessed as down regulation of MYBL1 gene expression at cytotoxic IC50 measured after 48 hrs relative to control
[28] = Inhibition of RTK/PI3K/AKT/mTOR signaling in human U87 cells assessed as down regulation of GSK3A gene expression at cytotoxic IC50 measured after 48 hrs relative to control
[29] = Inhibition of RTK/PI3K/AKT/mTOR signaling in human U87 cells assessed as down regulation of C2CD3 gene expression at cytotoxic IC50 measured after 48 hrs relative to control
[30] = Inhibition of RTK/PI3K/AKT/mTOR signaling in human U87 cells assessed as down regulation of FUS gene expression at cytotoxic IC50 measured after 48 hrs relative to control
[31] = Inhibition of RTK/PI3K/AKT/mTOR signaling in human U87 cells assessed as down regulation of ANKRD49 gene expression at cytotoxic IC50 measured after 48 hrs relative to control
[32] = Inhibition of RTK/PI3K/AKT/mTOR signaling in human U87 cells assessed as down regulation of UBTF gene expression at cytotoxic IC50 measured after 48 hrs relative to control

Compound: CC(=O)C(=NNc1ccccc1C#N)C(C)=O
- log2FC [1]: 1.96
- log2FC [2]: -0.809
- log2FC [3]: 0.986
- log2FC [4]: 0.92
- log2FC [5]: 0.762
- log2FC [6]: 1.35
- log2FC [7]: 0.415
- log2FC [8]: -1.21
- log2FC [9]: -0.472
- log2FC [10]: -0.801
- log2FC [11]: 0.818
- log2FC [12]: 0.577
- log2FC [13]: 0.792
- log2FC [14]: 1.56
- log2FC [15]: -0.597
- log2FC [16]: -1.03
- log2FC [17]: -0.542
- log2FC [18]: -0.932
- log2FC [19]: 0.985
- log2FC [20]: -0.721
- log2FC [21]: 1.82
- log2FC [22]: -1.76
- log2FC [23]: -0.716
- log2FC [24]: 1.02
- log2FC [25]: -1.95
- log2FC [26]: 0.703
- log2FC [27]: -2.17
- log2FC [28]: -0.604
- log2FC [29]: -0.731
- log2FC [30]: -1.52
- log2FC [31]: -1.18
- log2FC [32]: -0.521
